The nature of the assay: qHTS Assay for Lipid Storage Modulators in Drosophila S3 Cells.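 For cell number change: cells counted by Cell Tracker Red CMTPX staining in the red channel.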 Particulars: BODIPY lipid droplet fluorescence, 18-24 h; for cell number change: measured here: cell count max response, cells fed with added oleic acid. Summed up: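 Drosophila S3 cells loaded with oleic acid (400 uM, as added) and compounds at several concentrations; lipid droplets imaged by 488-nm laser-scanning cytometry, 500–530 nm intensity and object ratio to cell channel. Percent activity normalized to 20 uM Triacsin C.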

Where [1] appears, read: measured here: cell number channel AC50, cells fed with added oleic acid.
Setting [2] is: measured here: lipid fluorescence (Fed channel) AC50, cells fed with added oleic acid.

In PubChem BioAssay AID2685 (National Center for Advancing Translational Sciences (NCATS), 2010) one finds cell number change and AC50 data, which are given here for 59 compounds.

SMILES strings stand for the structures. This is one part of the list. These are further read-outs of the screen, such as a control signal, another cell line or another target. No call is given for them. The list favours compounds with an active or inconclusive main result. Words in brackets tell the shape of the fitted curve; partial curves, single points and poor fits give uncertain potencies.

On to `CCOc1ccc(NC(=O)CN(C)C(=O)CC2CCCC2)cc1OCC`, for which the cell number change is 40.6%. In addition, under setting [1], the AC50 (commonly the concentration at which the activity in the assay is half-maximal) is 32.6 µM [rising, partial curve, poor fit]. Further, the AC50 under setting [2] is 9.2 µM [rising, partial curve].
Consider `O=C(CCc1ccccn1)NC1CCCc2c1cnn2-c1ccc(F)cc1F` (centres undefined), for which the cell number change was -36.2%. Besides, under setting [1], the half-maximal activity concentration (AC50) is 13 µM [falling, partial curve]. Also, the AC50 under setting [2] is 13 µM [falling, partial curve].
As to `O=C(O)CC(C(=O)Nc1cccc(C(F)(F)F)c1)C1CCCO1` (centres undefined), the cell number change amounted to 0.0957%. For the same compound, the AC50 under setting [1] was 6.51 µM [falling, single point]. Besides, the concentration at half-maximal activity (AC50) under setting [2] is 6.51 µM [falling, single point].
As to `C#CCn1cc(Cl)cc(C(=O)Nc2ccccc2)c1=O`, the cell number change worked out at 25.7%. In addition, the concentration at half-maximal activity (AC50) under setting [2] was 1.46 µM [rising, partial curve].
Take `CN(C(=O)c1coc(=O)c2ccccc12)c1ccc(Br)cc1`: the cell number change stood at 30.1%. Also, the concentration at half-maximal activity (AC50) under setting [2] was 29.1 µM [rising, partial curve, poor fit].
Turning to `CCN1CCN(C(=O)/C(C#N)=C/c2ccc(OC(F)F)cc2)CC1`, the cell number change is -47.3%. In addition, the concentration at half-maximal activity (AC50) under setting [1] is 16.4 µM [falling, single point]. Moreover, the half-maximal activity concentration (AC50) under setting [2] is 16.4 µM [falling, partial curve].
Turning to `Cc1ccc(NC(=O)COc2ncnc3cc([N+](=O)[O-])ccc23)cc1S(=O)(=O)N1CCOCC1`, the cell number change was found to be 17.2%. Under setting [2], the AC50 was 0.0058 µM [falling, full curve, poor fit].
Take `O=C(CSc1ccsc1[N+](=O)[O-])NCCc1ccccc1`: the cell number change came out at 40.2%. Also, the concentration at half-maximal activity (AC50) under setting [1] was 9.2 µM [rising, single point].
Take `COc1ccc(-c2csc(Nc3ccc(S(=O)(=O)Nc4cc(C)on4)cc3)n2)cc1C`: the cell number change is 110%. Besides, the half-maximal activity concentration (AC50) under setting [1] was 29.1 µM [rising, single point]. For the same compound, under setting [2], the AC50 was 23.1 µM [rising, partial curve].
With `NNS(=O)(=O)c1ccc(Sc2ccccn2)c([N+](=O)[O-])c1`, the cell number change was 28.4%. For the same compound, under setting [2], the AC50 is 1.3 µM [rising, partial curve].
For `CC(NC(=O)CCc1nnc(C2(c3ccc(Cl)cc3)CCC2)o1)C1CC1` (centres undefined), the cell number change is -16.9%. For the same compound, the AC50 under setting [2] is 0.00461 µM [falling, full curve].
Consider `O=C(COC(=O)c1ccccc1F)Nc1cccnc1Cl`, for which the cell number change is 19%. Moreover, the AC50 under setting [2] was 6.51 µM [falling, single point].
On to `Cc1cccc(NC(=O)CN2C(=O)N/C(=C\c3cccn3-c3cccc(C(=O)O)c3)C2=O)c1`, for which the cell number change was 3.66%. Also, the half-maximal activity concentration (AC50) under setting [1] is 0.13 µM [falling, full curve, poor fit]. Moreover, the AC50 under setting [2] was 0.146 µM [falling, full curve, poor fit].
As for `CC(Sc1nnnn1-c1ccc(O)cc1)C(=O)NNC(=O)c1ccc(F)cc1` (centres undefined), the cell number change is 2.89%. The AC50 under setting [2] is 20.6 µM [rising, partial curve].
`COC(=O)c1c(NC(C)=O)sc2c1CCCC2`: the cell number change was -26.8%. Under setting [2], the concentration at half-maximal activity (AC50) is 4.61 µM [falling, partial curve].
On to `CCOC(=O)c1cc(-c2nnc(SCC(=O)Nc3ccc(F)cc3)o2)c(C)nc1C`, for which the cell number change was -1.07%.
For the compound `CCN1/C(=C\C(C)=O)Sc2ccc(OC)cc21`, the cell number change was 52.2%.
In the case of `Clc1cccc(Nc2nc(-c3cccnc3)cs2)c1`, the cell number change was -5.27%. The half-maximal activity concentration (AC50) under setting [2] is 0.651 µM [falling, single point].
With `CCOC(=O)c1c(C)[nH]c(C(=O)OCC(=O)NC2CCS(=O)(=O)C2)c1C` (centres undefined), the cell number change is 147%. For the same compound, the half-maximal activity concentration (AC50) under setting [1] is 4.61 µM [rising, full curve]. The half-maximal activity concentration (AC50) under setting [2] was 3.66 µM [rising, full curve].
In the case of `COc1ccc(C)cc1-n1nnnc1SCC(=O)NC1CCS(=O)(=O)C1` (centres undefined), the cell number change is -11.4%. For the same compound, under setting [2], the AC50 was 0.82 µM [rising, single point].
Consider `O=C(O)CCN1Cc2ccccc2C1=O`, for which the cell number change was -47.4%. Further, the concentration at half-maximal activity (AC50) under setting [1] was 0.0517 µM [falling, full curve]. Moreover, under setting [2], the AC50 was 0.517 µM [falling, full curve, poor fit].
Regarding `O=C(N/C(=C/c1cccs1)C(=O)N1CCCC1)c1ccccc1`, the cell number change was -2.63%. Also, the AC50 under setting [2] was 35.5 µM [falling, single point].
For the compound `C#CCNC(=O)C1=C[C@@H](c2cn(C(C)=O)c3ccccc23)C[C@@H](OCCCCO)O1`, the cell number change is -19.3%. For the same compound, the AC50 under setting [2] was 29.1 µM [falling, single point].
On to `COCCCn1c2nc3ccccc3nc2c2c(=O)n(-c3ccccc3OC)cnc21`, for which the AC50 reads like this: under setting [1], 0.259 µM [rising, partial curve, poor fit]; under setting [2], 6.51 µM [rising, single point].
Turning to `COc1ccc(S(=O)(=O)N2CCCCCC2)cc1NS(=O)(=O)c1cc(C(=O)O)cc(C)c1C`, the cell number change is -5.89%. For the same compound, the half-maximal activity concentration (AC50) under setting [2] was 0.651 µM [falling, partial curve, poor fit].
For `COc1ccc(N2C(=O)CC(N3CCCCC3)C2=O)cc1` (centres undefined), the cell number change was -29.2%. Further, the AC50 under setting [1] was 4.61 µM [falling, full curve, poor fit]. For the same compound, the AC50 under setting [2] is 0.13 µM [falling, full curve, poor fit].
Regarding `N#Cc1c2n(c3c(=S)nc[nH]c13)CCCCC2`, the cell number change is -11.3%. Besides, under setting [2], the AC50 was 0.00517 µM [falling, full curve, poor fit].
In the case of `Cc1ccccc1CS(=O)(=O)Cc1ccc(C(=O)NCC2CCCO2)o1` (centres undefined), the AC50 under setting [2] is 20.6 µM [rising, single point].
Take `CCCc1cnc(N2CCN(C(=S)NC)CC2)nc1`: the cell number change came to 13.2%. Further, the AC50 under setting [1] was 2.91 µM [falling, single point].
For `FC(F)(F)c1ccccc1-n1c(-c2ccco2)n[nH]c1=S`, the cell number change was found to be 31.2%. Besides, under setting [1], the concentration at half-maximal activity (AC50) was 6.51 µM [rising, partial curve, poor fit].
With `CCOc1ccc(C(=O)NN2C(=O)C3C4C=CC(O4)C3C2=O)cc1` (centres undefined), the cell number change is 159%. Moreover, the AC50 under setting [1] is 6.51 µM [falling, single point].
Turning to `Cc1cccc(NC(=O)CSc2nnc(C)n2Cc2ccccc2)c1`, the cell number change worked out at 91.3%. The AC50 under setting [1] is 2.31 µM [rising, full curve]. Also, under setting [2], the concentration at half-maximal activity (AC50) is 2.06 µM [rising, partial curve].
With `Cc1cccc(C)c1NC1=NC(=S)N(c2ccccc2)C12CCOC(C)(C)C2` (centres undefined), the cell number change was -27.4%. Moreover, under setting [2], the concentration at half-maximal activity (AC50) was 0.92 µM [falling, full curve, poor fit].
In the case of `CCOc1ccc(N(CC(=O)Nc2cccc(OC)c2)S(C)(=O)=O)cc1`, the cell number change was -15.2%. In addition, under setting [2], the half-maximal activity concentration (AC50) was 0.184 µM [rising, full curve, poor fit].
In the case of `CCOc1ccc(NS(=O)(=O)c2c(C)nc3sc(CC)nn3c2=O)cc1`, the cell number change was -9.88%. Also, under setting [2], the AC50 was 2.91 µM [falling, full curve, poor fit].
As for `O=C(CSc1ncn[nH]1)NCCCc1ccccc1`, the cell number change is 12%. Under setting [2], the AC50 is 6.51 µM [rising, single point].
On to `O=C(NCc1cccnc1)/C(=C/c1ccccc1)NC(=O)c1ccccc1`, for which the cell number change was 18%.
On to `CC(NC(=O)C1CCCN1C(=O)OCc1ccccc1)c1ccccc1` (centres undefined), for which the cell number change is -31.5%. Moreover, the AC50 under setting [1] is 32.6 µM [falling, single point].
For the compound `CCc1ccc(NC(=O)COC(=O)CN2C(=O)COc3ccccc32)cc1`, under setting [2], the AC50 was 6.51 µM [falling, single point].
As for `CN(CC(=O)Nc1cccc(F)c1)C(=O)c1cc2c(s1)CCCCC2`, the cell number change is 101%. In addition, under setting [1], the AC50 is 13 µM [rising, partial curve].
For the compound `CSc1ccc(/C=C(\C#N)C(=O)Nc2cccc(C)c2)cc1`, the cell number change was -45.2%. In addition, under setting [1], the AC50 was 18.4 µM [falling, single point]. The AC50 under setting [2] is 16.4 µM [falling, single point].
As to `COc1ccccc1/C=C/c1ccc2cccc(O)c2n1`, the cell number change was -3.55%.
As to `COC(=O)c1cscc1NC(C)=O`, the cell number change was -6.02%. Under setting [2], the AC50 is 10.3 µM [rising, single point].
For `O=c1oc2ccccc2c2[nH]ccc12`, the cell number change was determined as 134%.
For the compound `O=C(CCCn1c(=O)[nH]c2cc(Cl)ccc2c1=O)N1CCN(c2ccc([N+](=O)[O-])cc2)CC1`, the cell number change amounted to 13.1%. Besides, under setting [2], the AC50 was 20.6 µM [rising, single point].
Consider `Cc1cccc(NC(=O)c2cccc(C(=O)Nc3cccc(C)c3C)n2)c1C`, for which the cell number change was found to be 6.74%. Also, under setting [2], the half-maximal activity concentration (AC50) is 29.1 µM [rising, single point].
In the case of `CCc1cccc(CC)c1NC(=O)CSc1nnc(C2CC2)n1N`, the cell number change amounted to 23%.
Still for that read-out and setting: next, `CN(C)c1ccnc2sc3c(=O)n(-c4ccccc4)cnc3c12`: -9.91%.
Take `O=C(Nc1nc2cc(Cl)ccc2s1)C1CCCN(S(=O)(=O)c2cccc3cccnc23)C1` (centres undefined): the cell number change was 2.36%.
As to `CCn1c(SCC(=O)Nc2ccccc2N2CCCCC2)nc2c1c(=O)n(C)c(=O)n2C`, the AC50 under setting [2] was 1.3 µM [rising, full curve].
With `Cc1cccc(-c2nc(Nc3ccc(O)cc3)c3ccccc3n2)c1`, the cell number change is -42.2%. Moreover, under setting [1], the AC50 is 18.4 µM [falling, single point]. Moreover, under setting [2], the half-maximal activity concentration (AC50) is 16.4 µM [falling, single point].
As to `CCOC(=O)C1CCN(C(=O)C2CCC(=O)N(Cc3cccc(C(F)(F)F)c3)C2)CC1` (centres undefined), the cell number change was 27%. Also, under setting [1], the AC50 was 0.103 µM [rising, full curve, poor fit]. In addition, under setting [2], the half-maximal activity concentration (AC50) was 0.103 µM [rising, full curve, poor fit].
As for `O=C(Cn1c(=O)oc2cc(S(=O)(=O)N3CCCC3)ccc21)NCc1ccccn1`, the half-maximal activity concentration (AC50) under setting [2] was 25.9 µM [falling, partial curve].
For the compound `O=C(CCCN1CCC(NC(=O)c2ccccc2)CC1)c1ccc(Cl)cc1`, the cell number change stood at 10.6%. Further, the AC50 under setting [2] was 0.103 µM [rising, full curve, poor fit].
Consider `CCCn1c(-c2cccnc2Cl)nc2cc(Cl)c(Cl)cc21`, for which the half-maximal activity concentration (AC50) under setting [1] is 0.58 µM [rising, partial curve].
As for `CS(=O)(=O)N(CC(=O)NCCSc1ccccn1)c1cccc2ccccc12`, the cell number change is -5.43%. Also, under setting [2], the AC50 is 4.61 µM [falling, single point].
Consider `O=[N+]([O-])c1ccccc1CNC1CCCc2ccccc21` (centres undefined), for which the cell number change was found to be 27.9%. For the same compound, under setting [2], the AC50 was 5.8 µM [rising, full curve, poor fit].
Take `CCOC(=O)COc1ccc2c(c1)C(=O)CC1(CCCCC1)O2`: the cell number change came to 2.8%. Besides, the AC50 under setting [2] is 0.82 µM [falling, full curve].
For the compound `CCN(CC)S(=O)(=O)c1cccc(-c2n[nH]c(=S)n2/N=C/c2ccc(OC)cc2)c1`, the cell number change was -50%. For the same compound, under setting [1], the AC50 was 0.0058 µM [falling, full curve, poor fit]. For the same compound, the AC50 under setting [2] is 29.1 µM [rising, single point].
